Binding signal data for 54 sequences are collected here from PMC7819943, “Rice protein-binding microarrays: a tool to detect cis-acting elements near promoter regions in rice”.

The chains behind the UniProt entries cited, without tags or fusion partners.
UniProt Q0JBA9, entry or part of it: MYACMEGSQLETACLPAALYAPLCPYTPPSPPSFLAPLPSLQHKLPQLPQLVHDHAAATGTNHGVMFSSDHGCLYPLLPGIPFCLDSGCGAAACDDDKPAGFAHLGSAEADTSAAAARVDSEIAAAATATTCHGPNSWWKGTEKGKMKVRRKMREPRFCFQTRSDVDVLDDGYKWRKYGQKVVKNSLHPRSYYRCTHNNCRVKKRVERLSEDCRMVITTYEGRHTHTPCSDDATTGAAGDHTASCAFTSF

This is one part of the list.

The target in the test is OsWRKY34 (Oryza sativa, UniProt Q0JBA9 1-250). As to the kind of experiment: protein-binding microarray (RPBM); PBS, 2% BSA, 51.3 ng/ul salmon testes DNA, 50 uM zinc acetate, 200 nM TF, 25 C, 1 h; high values mean tight binding. The conditions noted are these: protein: recombinant; tags: N-terminal polyhistidine and DsRed monomer fusion (pET32a); label: CyDye5-dUTP incorporated in the synthesized complementary strand; 3' TTTTT single-stranded linker to array surface; dsDNA, one strand shown. The gist of the method: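 Ni–NTA purification followed expression in E. coli BL21-CodonPlus of transcription factors fused N-terminally to a polyhistidine tag and DsRed. At 200 nM in PBS with 2% BSA, salmon testes DNA and 50 µM zinc acetate, the protein was incubated for 1 h at 25 °C with a custom Agilent array that had been primer-extended with Cy5-dUTP and blocked with 2% BSA. After washing, the array was read on an Axon 4000B scanner. The binding signal is per-feature fluorescence intensity in arbitrary units.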
Regarding “ATGGGCCGGGGTTAATGTTTTGTGTCATTGTGTGTGAGACCGGAGTCACCTAGTGCAG”, the binding signal was 10000 fluorescence intensity (a.u.).

Take “TAACCGCCGTTTATCTGAACTTTTTTTTCACTATGAAACACGGAGTCACCTAGTGCAG”: the binding signal was 9220 fluorescence intensity (a.u.).

As for “ACAATTTTTTTCCTTTTACCTCTATGCTTGGAACTCATAACGGAGTCACCTAGTGCAG”, the binding signal was 8490 fluorescence intensity (a.u.).

For “TCAGCCACACCTCCGCCACTGCCGCGACACCTGAAACAACCGGAGTCACCTAGTGCAG”, the binding signal was 8340 fluorescence intensity (a.u.).

As for “TGTCCGCTTATTTGTTTTAGTCATCGTTCTGGTTAAGATTCGGAGTCACCTAGTGCAG”, the binding signal was 11400 fluorescence intensity (a.u.).

Take “ACCCAATCAGCGTCCACTCCATTGTCCATTCCACTATTCCCGGAGTCACCTAGTGCAG”: the binding signal is 13500 fluorescence intensity (a.u.).

As for “TCATCCTCTTCGCTTGGCCTTCTCCGCATCCGGTTATTTTCGGAGTCACCTAGTGCAG”, the binding signal was 8180 fluorescence intensity (a.u.).

On to “TTCATCCACACTGCAACGCAAGCACAGCCGTCGCGAAAACCGGAGTCACCTAGTGCAG”, for which the binding signal was 8140 fluorescence intensity (a.u.).

With “TTTTTCCGTGTGTGTCGTTTCGTTCTTGTTTGTTCGGGTCCGGAGTCACCTAGTGCAG”, the binding signal was 12400 fluorescence intensity (a.u.).

As for “GATTAGTTCCTAACCACATTTTCCAAACACAGCCTAATTACGGAGTCACCTAGTGCAG”, the binding signal is 8490 fluorescence intensity (a.u.).

With “ACGTGGCTCCTTTGACTAGATTTTTGTCTCACGTATCATTCGGAGTCACCTAGTGCAG”, the binding signal is 8540 fluorescence intensity (a.u.).

As to “CCGCACTGTCCCTTTCGCCCGCGCGTCATACGGTGTCCACCGGAGTCACCTAGTGCAG”, the binding signal was 10100 fluorescence intensity (a.u.).

“GGGATTAGGGATTGTTTGTTACTTTGTACGTCTCCTAATACGGAGTCACCTAGTGCAG”: the binding signal is 12100 fluorescence intensity (a.u.).

Turning to “GAAGCCGACCGTTTTATTTTGTTCTGACGTTAATTTCGTGCGGAGTCACCTAGTGCAG”, the binding signal was 11800 fluorescence intensity (a.u.).

As for “ACTCGACTAATGTTTCTATTTATTCTTGTCTATCATACTCCGGAGTCACCTAGTGCAG”, the binding signal was 10900 fluorescence intensity (a.u.).

As to “ACTCTCTCTGTCTCGAGCTCGAGCTTGTTGTTGTTGATATCGGAGTCACCTAGTGCAG”, the binding signal was 13100 fluorescence intensity (a.u.).

As for “TCCAATATTCTTCATCTACGCAAATTTCCACGGTATTCAACGGAGTCACCTAGTGCAG”, the binding signal is 10100 fluorescence intensity (a.u.).

For the sequence “GATCCAGTGGTCGTAGAGGCGGTCGGGGTGGTCGTGCACGCGGAGTCACCTAGTGCAG”, the binding signal is 10100 fluorescence intensity (a.u.).

Regarding “TGTCTCTGCCTTTTGTTTTCTTTGCCATCTCTTTCTTTCTCGGAGTCACCTAGTGCAG”, the binding signal is 13300 fluorescence intensity (a.u.).

For “GACCCCGCGTGTCAGTCTATCCAGGTCAGCCTACTCTCTCCGGAGTCACCTAGTGCAG”, the binding signal is 9570 fluorescence intensity (a.u.).

With “TCAATCTTGGGTTTCTACTGGTCTAGGCCTGTCTTGCTTACGGAGTCACCTAGTGCAG”, the binding signal is 8760 fluorescence intensity (a.u.).

Consider “CCCAACCGGCAAGTATGCACACCACAATAGCGCCCAAATTCGGAGTCACCTAGTGCAG”, for which the binding signal is 8290 fluorescence intensity (a.u.).

For the sequence “TCGATCCATCTATCTACCTGTCGATCGGTGCTAGTATTAACGGAGTCACCTAGTGCAG”, the binding signal is 8410 fluorescence intensity (a.u.).

For the sequence “ACAGCTCACTTCAGTCTCACTTTTCCTGAATATATATAGCCGGAGTCACCTAGTGCAG”, the binding signal is 10300 fluorescence intensity (a.u.).

For the sequence “AAGATATTCTCCTCAGGAGTTAGGAGTGGTTTTAATTTTACGGAGTCACCTAGTGCAG”, the binding signal is 8760 fluorescence intensity (a.u.).

Consider “CCCAACCCCTGGAGCCGTACCAAATTCTGTTGGTATTCCACGGAGTCACCTAGTGCAG”, for which the binding signal is 8220 fluorescence intensity (a.u.).

For the sequence “GCAGCCCATGCTCTGGTTTCTATTTTTTGTGGTTTTTTTTCGGAGTCACCTAGTGCAG”, the binding signal was 8390 fluorescence intensity (a.u.).

For the sequence “TTATTAGAGTCTGTATTATTAATGTTATTACTATGCCTGGCGGAGTCACCTAGTGCAG”, the binding signal is 8140 fluorescence intensity (a.u.).

Consider “ACTTGTTATCGGTCTTGTTAAATTGAGCTGTTTGTTGACACGGAGTCACCTAGTGCAG”, for which the binding signal is 12900 fluorescence intensity (a.u.).

In the case of “CACGTTGACCATAATGATTTAGTACCATATACGATAATACCGGAGTCACCTAGTGCAG”, the binding signal is 14200 fluorescence intensity (a.u.).

Turning to “TGAGAGGTTTGAGCAAGAATAAGTTGGGGTTTCTTCTTTGCGGAGTCACCTAGTGCAG”, the binding signal is 8220 fluorescence intensity (a.u.).

Consider “CTCTAATTTTCTTTGCGTGTTCCATCATCAATATGGTATTCGGAGTCACCTAGTGCAG”, for which the binding signal is 10700 fluorescence intensity (a.u.).

Take “TTGTTTTTATCTATAGAAGTCATCGCACTGAAAATTTGGTCGGAGTCACCTAGTGCAG”: the binding signal was 8370 fluorescence intensity (a.u.).

For the sequence “GAATTAAACTTTGCATGGTTTCTGTTTGGTCAAACTTCTCCGGAGTCACCTAGTGCAG”, the binding signal was 9130 fluorescence intensity (a.u.).

“GGTATGGAGGCAGCTCGGGGTGGGCAGGATGGTGGCGGGACGGAGTCACCTAGTGCAG”: the binding signal was 14900 fluorescence intensity (a.u.).

In the case of “CACCCCTGCTGATGCGTCGCCGCCACCTTCTCTCCTTCCCCGGAGTCACCTAGTGCAG”, the binding signal was 9150 fluorescence intensity (a.u.).

Take “ATATACTACACTATTAATACCTGGTCCCACTTGTCATACACGGAGTCACCTAGTGCAG”: the binding signal was 9040 fluorescence intensity (a.u.).

Turning to “TATTTTTTGTTGGGTTTTTTGCTCGGCGGCGCCGCGGCGGCGGAGTCACCTAGTGCAG”, the binding signal was 8140 fluorescence intensity (a.u.).

In the case of “ATGAGTTTGTATGTGATTATATTTATCTCTCCATGGTTACCGGAGTCACCTAGTGCAG”, the binding signal is 8500 fluorescence intensity (a.u.).

For the sequence “GTATTTTTTCCCCTGGGTGATTTGCAACCGATTTCGTTCTCGGAGTCACCTAGTGCAG”, the binding signal was 10100 fluorescence intensity (a.u.).

Take “TTTCCAGAATTTATCTTCTCTGTTTAGGTCTCCTAAAAATCGGAGTCACCTAGTGCAG”: the binding signal was 8440 fluorescence intensity (a.u.).

For the sequence “CCACCCACCGGGGCGCGCCGCGGCGACTGCTACTGTTGAGCGGAGTCACCTAGTGCAG”, the binding signal is 8360 fluorescence intensity (a.u.).

As to “CACCTGCCTCCTCCTACCACCAGCCGCCGCCGACGACTAACGGAGTCACCTAGTGCAG”, the binding signal was 8550 fluorescence intensity (a.u.).

Regarding “AGTGTGTTTGTGCGTGTTTATAGGGTGAGCGTCTATATTTCGGAGTCACCTAGTGCAG”, the binding signal was 10300 fluorescence intensity (a.u.).

Turning to “TTTGACAACTAACTAACTAACCATCTCTTCTGTTTTCTCACGGAGTCACCTAGTGCAG”, the binding signal was 8230 fluorescence intensity (a.u.).

Take “AGTGTTCCTAGCTACAACGAGTGGTTTACTTTCTCATCCTCGGAGTCACCTAGTGCAG”: the binding signal is 10300 fluorescence intensity (a.u.).

As for “TGTATTTTTATTGGTTAACAATCGGTTTTCTGGGACTTAACGGAGTCACCTAGTGCAG”, the binding signal was 10100 fluorescence intensity (a.u.).

For “TCCCATCTTTCCATCCCAATCTCAATCTCCTACCCTTTTACGGAGTCACCTAGTGCAG”, the binding signal is 8230 fluorescence intensity (a.u.).

In the case of “GCGGTTGGAGGAAGACGACGTCACCCACCTTTTCCCCTTTCGGAGTCACCTAGTGCAG”, the binding signal is 8030 fluorescence intensity (a.u.).

For “ACGGAAACACCCTATTAATAAAATCTGTTTTATTTTTTATCGGAGTCACCTAGTGCAG”, the binding signal is 8280 fluorescence intensity (a.u.).

Regarding “ATCCTCGCTGCCCTTCTCCACTGTTTCTCCATCGCCGGCTCGGAGTCACCTAGTGCAG”, the binding signal is 10300 fluorescence intensity (a.u.).

On to “TACTTTCTTGCAACCATCCATCCTCGCCGTCTCCAATTCCCGGAGTCACCTAGTGCAG”, for which the binding signal is 8510 fluorescence intensity (a.u.).

As to “CCACCACTCATCACATCTCACACTCATTGCCTCTTTCTTCCGGAGTCACCTAGTGCAG”, the binding signal was 11100 fluorescence intensity (a.u.).

As for “CCTTCGTGTTACGTACCACCCTAAAACCCACAAAATCTCCCGGAGTCACCTAGTGCAG”, the binding signal was 8510 fluorescence intensity (a.u.).
